Data as given in PubChem BioAssay AID1259308 (NCATS, 2017).
Test: 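Genes whose loss raises luciferase production in HEK293 cells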 (primary screen). Cells: human HEK293 embryonic kidney cells stably expressing firefly luciferase (HEK-CMV-Luc2-Hygro). Knock-down reagent: single siRNA against human genes, 0.8 pmol siRNA per well. Timing: 72 h. Detection: 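Reporter luminescence and viable-cell signal on separate replicate plates, given as percent of non-targeting control and median/MAD z-scores, plus per-cell luciferase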. Reading the numbers: total luciferase, z-score and total luciferase, % of control: higher = more reporter protein produced; luciferase per cell, z-score: higher = more reporter output per viable cell; viable cells, % of control: higher = more viable cells. Call rule: 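An siRNA counts as active if its total luciferase robust z-score exceeds 3; genes with two or more such siRNAs out of three were retested with fresh siRNAs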. Calls: active = raised luciferase; inactive = no rise.
The whole screen tested about 59,000 reagents; below is an unselected part. About 1,510 of all reagents (2.6%) were called active. 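Calls use total luciferase alone and ignore viability, so some active siRNAs may act by altering cell number.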 Reagents against one gene are numbered here.

no.	gene	reagent	total luciferase, z-score	total luciferase, % of control	luciferase per cell, z-score	viable cells, % of control	activity call
1	PRMT8	1	0.545	92.7	-0.341	113	inactive
2	PRMT8	2	0.0927	83.7	-0.421	105	inactive
3	PRMT8	3	-0.472	72.5	0.539	70.3	inactive
4	AKAP6	1	-1.26	56.9	-0.925	81.2	inactive
5	AKAP6	2	-0.373	74.5	-0.536	95.8	inactive
6	AKAP6	3	0.988	102	0.767	92.7	inactive
7	HMGCLL1	1	-0.291	76.1	-0.424	95.1	inactive
8	HMGCLL1	2	3.89	159	3.04	80.1	active
9	HMGCLL1	3	0.588	93.6	0.189	99.5	inactive
10	AREG	1	2.67	135	2.18	85.1	inactive
11	AREG	2	0.106	84	0.367	85.2	inactive
12	AREG	3	-0.128	79.3	0.404	79.7	inactive
13	CCND1	1	-1.57	50.6	-1.55	84.9	inactive
14	CCND1	2	0.241	86.7	-0.0526	98.2	inactive
15	CCND1	3	0.954	101	0.767	92.1	inactive
16	LSM2	1	0.0211	82.3	0.333	84.3	inactive
17	LSM2	2	3.38	149	2.42	88	active
18	LSM2	3	1.17	105	0.964	91.2	inactive
19	UNC80	1	0.413	90.1	0.808	81.4	inactive
20	UNC80	2	0.921	100	1.08	84.2	inactive
21	UNC80	3	-1.48	52.5	-0.263	62.9	inactive
22	KERA	1	2.36	129	1.91	87.1	inactive
23	KERA	2	-0.557	70.8	-0.0198	79.5	inactive
24	KERA	3	-1.23	57.5	-1.25	89.3	inactive
25	MARCO	1	0.713	96.1	0.349	97.9	inactive
26	MARCO	2	1.44	111	0.826	99.4	inactive
27	MARCO	3	-1.11	59.9	-0.564	77.6	inactive
28	NEXN	1	-0.231	77.3	0.157	82.9	inactive
29	NEXN	2	1.39	109	0.752	100	inactive
30	NEXN	3	1.14	104	0.889	92.4	inactive
31	SGCB	1	-0.645	69.1	-0.451	86.9	inactive
32	SGCB	2	0.319	88.2	0.456	87.4	inactive
33	SGCB	3	0.624	94.3	0.171	101	inactive
34	FKBP9P1	1	-0.901	64	1.46	48.6	inactive
35	FKBP9P1	2	0.295	87.7	1.17	72	inactive
36	FKBP9P1	3	3.5	152	3.4	69.2	active
37	TMED5	1	-1.18	58.4	-0.911	83	inactive
38	TMED5	2	-0.583	70.3	-0.881	99.1	inactive
39	TMED5	3	0.29	87.7	-0.0492	99.2	inactive
40	NT5C1B	1	-0.44	73.1	-0.367	90	inactive
41	NT5C1B	2	-0.209	77.7	0.849	69.4	inactive
42	NT5C1B	3	-1.63	49.5	-1.13	74.5	inactive
43	EDIL3	1	-1.79	46.3	0.501	45.3	inactive
44	EDIL3	2	2.54	132	1.9	89.8	inactive
45	EDIL3	3	-0.311	75.7	-0.502	96.5	inactive
46	LACTBL1	1	0.173	85.3	0.275	88.7	inactive
47	LACTBL1	2	0.163	85.1	0.486	83.7	inactive
48	LACTBL1	3	-0.673	68.5	-0.364	84.3	inactive
49	ST13P8	1	-2.95	23.3	-3.5	65.3	inactive
50	ST13P8	2	1.11	104	1.34	81.6	inactive
51	ST13P8	3	0.506	92	1.26	73.8	inactive
52	DHX40	1	5.52	192	2.98	97.8	active
53	DHX40	2	0.2	85.9	-0.806	119	inactive
54	DHX40	3	0.363	89.1	-0.126	103	inactive
55	ANXA5	1	3.26	147	1.32	116	active
56	ANXA5	2	-1.69	48.3	-1.06	71.4	inactive
57	ANXA5	3	-0.665	68.7	0.0738	75.3	inactive

Ordered by “total luciferase, % of control” (low to high): some entries from above
gene	reagent	total luciferase, z-score	total luciferase, % of control	luciferase per cell, z-score	viable cells, % of control	activity call
DHX40	2	0.2	85.9	-0.806	119	inactive
ST13P8	3	0.506	92	1.26	73.8	inactive
ST13P8	2	1.11	104	1.34	81.6	inactive
DHX40	1	5.52	192	2.98	97.8	active
